In publication PMC5618341 (Chemical Science, 2017):
Entries after “also recorded” stand apart in the source; their conditions may differ. For some of these results: HELM strings list residues between dots; [ac] is acetyl, [am] amide, other brackets name non-standard units. Starred links: 1 amine or outer side, 2 acyl side, 3 side chain; linkers in the order of their positions; H or OH if unused. Non-standard residues stand in square brackets, D forms with d. AMPB = O=C(c1ccc(N=Nc2ccc(CN[*:1])cc2)cc1)[*:2]; Ahx = NCCCCCC(=O)O; βAla = NCCC(=O)O

What was measured:
[1] = Control for quenching artefacts in the FP assay; conditions: increasing AMPB concentrations; 20 nM tracer, 72 nM WDR5, 0.5 µM peptide 3 or 20 nM fluorescein
[2] = general procedure: Fmoc solid-phase peptide synthesis; TentaGel S RAM (0.25 mmol/g); rink amide MBHA; DIC/OxymaPure; conditions: whole synthesis; for final HPLC purity: 220 nm
[3] = general procedure: Fmoc solid-phase peptide synthesis; rink amide; DIC/OxymaPure; conditions: whole synthesis; for final HPLC purity: analytical HPLC, integrated peak areas, 220 nm
[4] = analytical HPLC, integrated peak areas, scale of the general procedure 20-40 umol
[5] = scale of the general procedure 20-40 umol
[6] = analytical HPLC, integrated peak areas, scale 20 µmol

Compound	isolated mass [2]	final HPLC purity [2, 4]	isolated yield [2, 5]	further results
NCc1ccc(N=Nc2ccc(C(=O)O)cc2)cc1 [AMPB, 4-[(4′-aminomethyl)phenylazo]benzoic acid]	–	–	–	effect on FP signal (quenching control) [1]: not affect the milli Polarization values; also recorded: absence of quenching artefacts
Ac-ARA[AMPB]VHLRKS-NH2 (SMILES CC(=O)N[C@@H](C)C(=O)N[C@@H](CCCNC(=N)N)C(=O)N[C@@H](C)C(=O)NCc1ccc(N=Nc2ccc(C(=O)N[C@H](C(=O)N[C@@H](Cc3c[nH]cn3)C(=O)N[C@@H](CC(C)C)C(=O)N[C@@H](CCCNC(=N)N)C(=O)N[C@@H](CCCCN)C(=O)N[C@@H](CO)C(N)=O)C(C)C)cc2)cc1)	2.70 mg	≥ 99%	13%	–
Ac-ART[AMPB]VY-NH2 (SMILES CC(=O)N[C@@H](C)C(=O)N[C@@H](CCCNC(=N)N)C(=O)N[C@H](C(=O)NCc1ccc(N=Nc2ccc(C(=O)N[C@H](C(=O)N[C@@H](Cc3ccc(O)cc3)C(N)=O)C(C)C)cc2)cc1)[C@@H](C)O)	–	–	–	final HPLC purity [2, 6]: Purity = 99%; isolated mass ([2]; scale 20 µmol): 11.0 mg; isolated yield ([2]; scale 20 µmol): 55%
H2N-(Arg-Ahx-Arg)4-Ahx-βA a-CONH2	18.4 mg	≥ 99%	45%	–
H2N-Ser-AMPB-Ala-Arg-Ala-Glu-Val-His-Leu-Arg-Lys-Ser-CONH2	14.8 mg	≥ 99%	19%	–
H2N-Ser-Ala-Arg-AMPB-Glu-Val-His-Leu-Arg-Lys-Ser-CONH2	14.4 mg	≥ 99%	21%	–
H2N-Ser-Ala-Arg-Ala-Glu-Val-His-Leu-Arg-Lys-Ser-R8-CONH2	42.7 mg	≥ 99%	13%	–
H-SARAEVHLRKS-NH2	62.7 mg	–	–	final HPLC purity [2, 5]: ≥ 99%; isolated yield ([2]; on resin-bound peptide taken for cleavage, scale of the general procedure 20-40 umol): 33%
H-SARAEVHLRKSR[Ahx]RR[Ahx]RR[Ahx]RR[Ahx]R[Ahx][βAla]-NH2 (SMILES CC(C)C[C@H](NC(=O)[C@H](Cc1c[nH]cn1)NC(=O)[C@@H](NC(=O)[C@H](CCC(=O)O)NC(=O)[C@H](C)NC(=O)[C@H](CCCNC(=N)N)NC(=O)[C@H](C)NC(=O)[C@@H](N)CO)C(C)C)C(=O)N[C@@H](CCCNC(=N)N)C(=O)N[C@@H](CCCCN)C(=O)N[C@@H](CO)C(=O)N[C@@H](CCCNC(=N)N)C(=O)NCCCCCC(=O)N[C@@H](CCCNC(=N)N)C(=O)N[C@@H](CCCNC(=N)N)C(=O)NCCCCCC(=O)N[C@@H](CCCNC(=N)N)C(=O)N[C@@H](CCCNC(=N)N)C(=O)NCCCCCC(=O)N[C@@H](CCCNC(=N)N)C(=O)N[C@@H](CCCNC(=N)N)C(=O)NCCCCCC(=O)N[C@@H](CCCNC(=N)N)C(=O)NCCCCCC(=O)NCCC(N)=O)	6 mg	≥ 99%	2%	–
H-SARAEVHLR[AMPB]S-NH2 (SMILES CC(C)C[C@H](NC(=O)[C@H](Cc1c[nH]cn1)NC(=O)[C@@H](NC(=O)[C@H](CCC(=O)O)NC(=O)[C@H](C)NC(=O)[C@H](CCCNC(=N)N)NC(=O)[C@H](C)NC(=O)[C@@H](N)CO)C(C)C)C(=O)N[C@@H](CCCNC(=N)N)C(=O)NCc1ccc(N=Nc2ccc(C(=O)N[C@@H](CO)C(N)=O)cc2)cc1)	–	–	–	isolated mass [3]: 7.7 mg; final HPLC purity [3, 5]: ≥ 99%; isolated yield [3, 5]: 65%
H-SARAEVHL[AMPB]KS-NH2 (SMILES CC(C)C[C@H](NC(=O)[C@H](Cc1c[nH]cn1)NC(=O)[C@@H](NC(=O)[C@H](CCC(=O)O)NC(=O)[C@H](C)NC(=O)[C@H](CCCNC(=N)N)NC(=O)[C@H](C)NC(=O)[C@@H](N)CO)C(C)C)C(=O)NCc1ccc(N=Nc2ccc(C(=O)N[C@@H](CCCCN)C(=O)N[C@@H](CO)C(N)=O)cc2)cc1)	–	–	–	isolated mass [3]: 9.4 mg; final HPLC purity [3, 5]: Purity = 99%; isolated yield [3, 5]: 29%
H-SARAEVH[AMPB]RKS-NH2 (SMILES CC(C)[C@H](NC(=O)[C@H](CCC(=O)O)NC(=O)[C@H](C)NC(=O)[C@H](CCCNC(=N)N)NC(=O)[C@H](C)NC(=O)[C@@H](N)CO)C(=O)N[C@@H](Cc1c[nH]cn1)C(=O)NCc1ccc(N=Nc2ccc(C(=O)N[C@@H](CCCNC(=N)N)C(=O)N[C@@H](CCCCN)C(=O)N[C@@H](CO)C(N)=O)cc2)cc1)	1.8 mg	Purity = 98%	22%	–
H-SARAEV[AMPB]LRKS-NH2 (SMILES CC(C)C[C@H](NC(=O)c1ccc(N=Nc2ccc(CNC(=O)[C@@H](NC(=O)[C@H](CCC(=O)O)NC(=O)[C@H](C)NC(=O)[C@H](CCCNC(=N)N)NC(=O)[C@H](C)NC(=O)[C@@H](N)CO)C(C)C)cc2)cc1)C(=O)N[C@@H](CCCNC(=N)N)C(=O)N[C@@H](CCCCN)C(=O)N[C@@H](CO)C(N)=O)	7.0 mg	≥ 99%	25%	–
H-SARAE[AMPB]HLRKS-NH2 (SMILES CC(C)C[C@H](NC(=O)[C@H](Cc1c[nH]cn1)NC(=O)c1ccc(N=Nc2ccc(CNC(=O)[C@H](CCC(=O)O)NC(=O)[C@H](C)NC(=O)[C@H](CCCNC(=N)N)NC(=O)[C@H](C)NC(=O)[C@@H](N)CO)cc2)cc1)C(=O)N[C@@H](CCCNC(=N)N)C(=O)N[C@@H](CCCCN)C(=O)N[C@@H](CO)C(N)=O)	1.4 mg	Purity ≥ 99%	9%	–
H-SARA[AMPB]HLRKS-NH2 (SMILES CC(C)C[C@H](NC(=O)[C@H](Cc1c[nH]cn1)NC(=O)c1ccc(N=Nc2ccc(CNC(=O)[C@H](C)NC(=O)[C@H](CCCNC(=N)N)NC(=O)[C@H](C)NC(=O)[C@@H](N)CO)cc2)cc1)C(=O)N[C@@H](CCCNC(=N)N)C(=O)N[C@@H](CCCCN)C(=O)N[C@@H](CO)C(N)=O)	–	–	–	final HPLC purity [2, 6]: Purity = 98%; isolated mass ([2]; scale 20 µmol): 15.7 mg; isolated yield ([2]; scale 20 µmol): 43%
H-SARA[AMPB]VHLRKSRRRRRRRR-NH2	–	–	–	final HPLC purity ([2]; analytical HPLC, integrated peak areas, scale 0.1 mmol): ≥ 99%; isolated mass ([2]; scale 0.1 mmol): 86.5 mg; isolated yield ([2]; scale 0.1 mmol): 21%
H-S[AMPB]RAEVHLRKS-NH2	14.1 mg	≥ 99%	20%	–
PEPTIDE1{R.R.R.R.R.R.R.R.[am]}$$$$V2.0	24.2 mg	≥ 99%	27%	–
PEPTIDE1{[ac].A.R.T.E.V.H.L.R.K.S.[Ahx].[Ahx].K.[am]}|CHEM1{[5FAM]}$PEPTIDE1,CHEM1,14:R3-1:R2$$$V2.0	–	–	–	final HPLC purity ([3]; scale 60 µmol): Purity = 99%; isolated mass ([3]; scale 60 µmol): 19.1 mg; isolated yield ([3]; scale 60 µmol): 56%
